Paper PMC12540763
No constants are given. Whether binding was seen depends on the method and setting. In cells and extracts the contact can be indirect. Some binding calls cover weakened binding; strength is not graded here. For some of these results: Tags and fused reporters may be left off the sequences shown.

Chains of the proteins cited; added tags and fusions are not shown.
UniProt Q9UBN7: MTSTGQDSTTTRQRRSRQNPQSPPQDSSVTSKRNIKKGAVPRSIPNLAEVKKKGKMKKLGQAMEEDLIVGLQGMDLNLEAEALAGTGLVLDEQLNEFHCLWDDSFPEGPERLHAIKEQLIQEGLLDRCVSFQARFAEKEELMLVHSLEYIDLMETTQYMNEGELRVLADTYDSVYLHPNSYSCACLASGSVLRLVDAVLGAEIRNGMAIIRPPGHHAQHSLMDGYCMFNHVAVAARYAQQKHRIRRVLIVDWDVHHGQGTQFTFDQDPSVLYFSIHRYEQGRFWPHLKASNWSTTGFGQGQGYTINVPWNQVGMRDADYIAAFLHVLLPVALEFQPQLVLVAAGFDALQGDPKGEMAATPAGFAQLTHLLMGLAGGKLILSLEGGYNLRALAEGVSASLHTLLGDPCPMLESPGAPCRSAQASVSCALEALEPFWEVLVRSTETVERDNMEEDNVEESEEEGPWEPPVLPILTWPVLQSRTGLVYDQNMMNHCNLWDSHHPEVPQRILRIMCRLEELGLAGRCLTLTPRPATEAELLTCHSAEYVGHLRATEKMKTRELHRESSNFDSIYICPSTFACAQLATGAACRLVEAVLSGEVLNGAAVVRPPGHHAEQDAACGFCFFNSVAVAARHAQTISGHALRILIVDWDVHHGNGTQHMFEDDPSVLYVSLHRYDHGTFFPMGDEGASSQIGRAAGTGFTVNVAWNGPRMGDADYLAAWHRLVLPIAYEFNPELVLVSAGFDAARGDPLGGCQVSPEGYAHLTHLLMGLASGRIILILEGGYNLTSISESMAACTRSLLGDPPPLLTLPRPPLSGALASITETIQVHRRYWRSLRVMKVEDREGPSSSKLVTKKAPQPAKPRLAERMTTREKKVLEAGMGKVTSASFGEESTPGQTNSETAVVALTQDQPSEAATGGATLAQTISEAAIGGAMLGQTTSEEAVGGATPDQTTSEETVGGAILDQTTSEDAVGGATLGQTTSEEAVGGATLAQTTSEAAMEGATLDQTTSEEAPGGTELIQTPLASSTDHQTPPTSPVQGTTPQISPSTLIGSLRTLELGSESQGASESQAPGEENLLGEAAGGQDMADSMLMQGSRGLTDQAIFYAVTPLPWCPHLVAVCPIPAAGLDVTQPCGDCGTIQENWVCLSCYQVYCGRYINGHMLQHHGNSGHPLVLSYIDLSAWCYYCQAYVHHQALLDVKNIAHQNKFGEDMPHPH
UniProt Q09472: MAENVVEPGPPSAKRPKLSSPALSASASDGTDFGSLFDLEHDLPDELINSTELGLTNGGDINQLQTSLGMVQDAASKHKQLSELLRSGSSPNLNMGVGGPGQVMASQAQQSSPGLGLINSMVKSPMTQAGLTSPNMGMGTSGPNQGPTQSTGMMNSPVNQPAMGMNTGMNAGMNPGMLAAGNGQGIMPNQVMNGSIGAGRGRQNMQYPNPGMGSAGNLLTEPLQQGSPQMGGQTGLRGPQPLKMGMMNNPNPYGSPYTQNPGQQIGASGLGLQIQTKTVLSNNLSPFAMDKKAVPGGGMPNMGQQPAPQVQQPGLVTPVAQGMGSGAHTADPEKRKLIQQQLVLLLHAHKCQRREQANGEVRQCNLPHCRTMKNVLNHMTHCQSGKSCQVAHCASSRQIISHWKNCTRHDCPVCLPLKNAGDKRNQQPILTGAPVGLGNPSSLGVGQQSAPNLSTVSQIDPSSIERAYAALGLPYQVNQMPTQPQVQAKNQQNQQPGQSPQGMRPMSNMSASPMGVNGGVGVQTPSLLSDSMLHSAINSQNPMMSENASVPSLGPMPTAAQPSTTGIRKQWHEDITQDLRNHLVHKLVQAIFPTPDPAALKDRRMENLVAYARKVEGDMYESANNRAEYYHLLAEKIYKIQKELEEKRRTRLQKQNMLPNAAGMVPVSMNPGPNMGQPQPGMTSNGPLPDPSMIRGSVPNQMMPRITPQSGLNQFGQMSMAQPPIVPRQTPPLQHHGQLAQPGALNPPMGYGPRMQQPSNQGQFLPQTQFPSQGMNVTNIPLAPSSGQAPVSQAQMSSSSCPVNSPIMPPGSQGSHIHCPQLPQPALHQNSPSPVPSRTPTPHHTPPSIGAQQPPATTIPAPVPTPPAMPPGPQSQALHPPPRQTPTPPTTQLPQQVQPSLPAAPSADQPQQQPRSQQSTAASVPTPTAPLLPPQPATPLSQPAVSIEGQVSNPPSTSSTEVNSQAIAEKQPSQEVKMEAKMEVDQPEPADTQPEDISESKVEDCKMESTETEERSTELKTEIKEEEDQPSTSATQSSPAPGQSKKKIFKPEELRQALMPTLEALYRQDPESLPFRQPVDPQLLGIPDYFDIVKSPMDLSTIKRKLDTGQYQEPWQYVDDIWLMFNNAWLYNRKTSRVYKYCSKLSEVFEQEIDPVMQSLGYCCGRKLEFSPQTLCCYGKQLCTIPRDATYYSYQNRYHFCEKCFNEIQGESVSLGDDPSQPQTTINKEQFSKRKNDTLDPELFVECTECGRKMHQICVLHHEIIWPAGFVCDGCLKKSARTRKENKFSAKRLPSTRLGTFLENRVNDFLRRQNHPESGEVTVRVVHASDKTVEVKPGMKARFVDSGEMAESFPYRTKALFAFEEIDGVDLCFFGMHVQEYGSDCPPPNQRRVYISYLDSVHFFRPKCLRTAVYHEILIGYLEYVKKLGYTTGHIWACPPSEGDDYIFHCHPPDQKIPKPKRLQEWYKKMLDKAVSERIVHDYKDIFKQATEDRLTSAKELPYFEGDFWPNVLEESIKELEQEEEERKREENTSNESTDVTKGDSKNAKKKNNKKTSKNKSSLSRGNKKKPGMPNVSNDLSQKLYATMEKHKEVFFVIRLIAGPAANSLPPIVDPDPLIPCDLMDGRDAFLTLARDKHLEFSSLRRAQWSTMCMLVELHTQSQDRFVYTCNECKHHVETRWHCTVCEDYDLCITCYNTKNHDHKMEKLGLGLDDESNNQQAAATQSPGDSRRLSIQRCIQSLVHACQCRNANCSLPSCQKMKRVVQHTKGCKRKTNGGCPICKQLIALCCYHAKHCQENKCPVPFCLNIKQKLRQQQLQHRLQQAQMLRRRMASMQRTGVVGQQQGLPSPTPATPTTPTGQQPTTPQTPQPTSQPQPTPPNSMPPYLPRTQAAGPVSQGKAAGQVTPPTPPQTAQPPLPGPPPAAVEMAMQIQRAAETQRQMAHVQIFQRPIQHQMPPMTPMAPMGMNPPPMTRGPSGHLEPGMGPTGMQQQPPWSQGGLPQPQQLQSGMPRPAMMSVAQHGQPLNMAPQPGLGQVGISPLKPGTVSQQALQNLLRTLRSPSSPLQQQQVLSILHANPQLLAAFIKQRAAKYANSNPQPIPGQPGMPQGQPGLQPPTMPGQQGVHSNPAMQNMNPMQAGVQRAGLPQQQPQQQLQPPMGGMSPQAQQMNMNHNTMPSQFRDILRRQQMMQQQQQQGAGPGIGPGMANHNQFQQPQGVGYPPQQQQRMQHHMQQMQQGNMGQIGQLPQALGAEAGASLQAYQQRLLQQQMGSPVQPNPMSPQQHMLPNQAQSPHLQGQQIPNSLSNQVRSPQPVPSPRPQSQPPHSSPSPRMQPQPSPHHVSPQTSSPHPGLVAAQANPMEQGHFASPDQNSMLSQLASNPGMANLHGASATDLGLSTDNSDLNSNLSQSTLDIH
UniProt Q9HCE7: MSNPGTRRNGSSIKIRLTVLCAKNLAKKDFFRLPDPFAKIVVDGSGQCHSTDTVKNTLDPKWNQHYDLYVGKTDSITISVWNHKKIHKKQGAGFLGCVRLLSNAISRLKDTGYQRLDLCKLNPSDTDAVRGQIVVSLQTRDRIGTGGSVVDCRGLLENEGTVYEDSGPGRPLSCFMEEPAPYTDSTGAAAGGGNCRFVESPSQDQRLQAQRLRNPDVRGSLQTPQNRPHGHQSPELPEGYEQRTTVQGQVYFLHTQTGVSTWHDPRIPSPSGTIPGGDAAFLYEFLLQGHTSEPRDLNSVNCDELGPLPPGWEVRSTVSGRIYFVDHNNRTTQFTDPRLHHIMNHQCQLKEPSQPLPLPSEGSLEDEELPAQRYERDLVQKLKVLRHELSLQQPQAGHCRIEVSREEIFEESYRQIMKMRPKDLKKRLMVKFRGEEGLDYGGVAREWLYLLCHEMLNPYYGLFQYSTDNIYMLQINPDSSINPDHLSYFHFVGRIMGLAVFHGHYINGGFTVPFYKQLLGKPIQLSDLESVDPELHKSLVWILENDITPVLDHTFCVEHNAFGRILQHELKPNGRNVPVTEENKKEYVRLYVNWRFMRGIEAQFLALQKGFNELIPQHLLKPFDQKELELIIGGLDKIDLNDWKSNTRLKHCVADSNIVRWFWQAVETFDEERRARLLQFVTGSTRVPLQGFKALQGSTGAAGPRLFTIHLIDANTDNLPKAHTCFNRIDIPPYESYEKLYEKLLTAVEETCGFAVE
UniProt Q9UQL6: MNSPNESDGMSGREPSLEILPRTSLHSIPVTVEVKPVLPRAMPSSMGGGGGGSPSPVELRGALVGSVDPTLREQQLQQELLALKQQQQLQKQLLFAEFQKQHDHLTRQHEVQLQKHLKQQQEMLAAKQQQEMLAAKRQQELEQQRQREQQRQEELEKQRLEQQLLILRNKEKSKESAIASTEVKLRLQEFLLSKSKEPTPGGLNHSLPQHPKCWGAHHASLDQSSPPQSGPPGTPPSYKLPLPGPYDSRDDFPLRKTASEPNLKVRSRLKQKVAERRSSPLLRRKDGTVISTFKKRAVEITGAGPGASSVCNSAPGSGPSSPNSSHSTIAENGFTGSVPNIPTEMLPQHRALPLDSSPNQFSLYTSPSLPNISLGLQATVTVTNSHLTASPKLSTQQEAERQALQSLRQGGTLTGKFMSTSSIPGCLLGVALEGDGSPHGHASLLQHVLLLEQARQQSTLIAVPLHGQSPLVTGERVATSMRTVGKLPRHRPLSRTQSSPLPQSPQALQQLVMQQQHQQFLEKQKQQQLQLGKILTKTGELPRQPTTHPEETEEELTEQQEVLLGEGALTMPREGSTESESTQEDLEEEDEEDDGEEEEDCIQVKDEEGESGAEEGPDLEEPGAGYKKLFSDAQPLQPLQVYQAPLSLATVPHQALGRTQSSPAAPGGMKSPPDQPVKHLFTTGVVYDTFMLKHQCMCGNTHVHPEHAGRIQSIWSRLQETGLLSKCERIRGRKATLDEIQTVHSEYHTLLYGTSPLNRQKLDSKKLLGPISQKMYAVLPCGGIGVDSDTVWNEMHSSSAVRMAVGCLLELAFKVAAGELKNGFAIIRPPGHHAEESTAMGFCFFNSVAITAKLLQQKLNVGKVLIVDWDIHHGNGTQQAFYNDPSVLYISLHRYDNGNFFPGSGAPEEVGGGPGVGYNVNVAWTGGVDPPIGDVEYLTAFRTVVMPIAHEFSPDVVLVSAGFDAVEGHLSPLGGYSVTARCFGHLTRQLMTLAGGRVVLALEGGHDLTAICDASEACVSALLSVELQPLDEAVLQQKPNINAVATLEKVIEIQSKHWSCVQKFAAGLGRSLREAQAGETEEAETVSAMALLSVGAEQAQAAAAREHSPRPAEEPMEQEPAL

Legend:
[1] = target: Flag-TALDO1 (transaldolase 1), wild type, in NPC cells (UniProt P37837); assay: co-IP; NPC cells transfected with Flag-TALDO1; exogenous Flag-TALDO1 and endogenous HDAC6; IP and western blot
[2] = target: Flag-TALDO1 (transaldolase 1), wild type (UniProt P37837); assay: co-IP; 293T cells transfected with both tagged proteins for 48 h; lysate in IP buffer with protease inhibitors, 2 μg antibody overnight at 4 °C, magnetic beads, western blot
[3] = target: Flag-TALDO1 K7R (mimicking deacetylation) (UniProt P37837); assay: as above
[4] = target: TALDO1 (transaldolase 1), endogenous (human (endogenous; cell line not named, all cell lines of the paper are human)) (UniProt P37837); assay: co-IP; endogenous proteins, IP and western blot; cell line not named

Substance | binding [2] | also measured
HDAC6, endogenous in NPC cells (from UniProt Q9UBN7 1-1215) (enzyme) |  | binding [1]: binds
His-tagged HDAC6 (from UniProt Q9UBN7 1-1215) (enzyme) | binds | 
p300, endogenous (from UniProt Q09472 1-2414) (enzyme) |  | binding [4]: binds

More lines, main results first:

binding [2] | Substance | also measured
binds | His-SMURF1 (from UniProt Q9HCE7 1-757) (enzyme) | binding [3]: binds
binds | His-tagged HDAC5 (from UniProt Q9UQL6 1-1122) (enzyme) | 
binds | Myc-p300 (from UniProt Q09472 1-2414) (enzyme) | 
